Results are given in words; binding and its absence hold for the method and conditions named. Some results given as binding are weak or reduced against the parent protein; the word gives no strength.

Amino acid sequences for entries named in this document (tags omitted). Residues count along the entry.
UniProt P02769, residues 25-607: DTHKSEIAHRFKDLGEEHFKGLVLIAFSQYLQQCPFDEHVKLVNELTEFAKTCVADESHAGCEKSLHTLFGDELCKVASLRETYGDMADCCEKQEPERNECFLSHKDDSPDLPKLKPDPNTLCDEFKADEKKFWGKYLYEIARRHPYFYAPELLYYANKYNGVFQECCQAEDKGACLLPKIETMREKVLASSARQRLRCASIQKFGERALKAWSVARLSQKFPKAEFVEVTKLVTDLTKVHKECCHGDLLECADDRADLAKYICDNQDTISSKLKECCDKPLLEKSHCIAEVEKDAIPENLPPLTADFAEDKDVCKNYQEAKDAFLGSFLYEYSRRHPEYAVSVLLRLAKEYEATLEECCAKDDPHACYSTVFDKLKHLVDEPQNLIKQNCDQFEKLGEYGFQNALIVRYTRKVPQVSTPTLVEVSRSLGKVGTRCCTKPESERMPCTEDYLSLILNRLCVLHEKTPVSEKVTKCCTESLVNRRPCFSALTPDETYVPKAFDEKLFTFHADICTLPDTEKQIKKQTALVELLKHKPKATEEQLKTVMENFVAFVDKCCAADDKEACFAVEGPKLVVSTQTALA
UniProt P02872, residues 24-259: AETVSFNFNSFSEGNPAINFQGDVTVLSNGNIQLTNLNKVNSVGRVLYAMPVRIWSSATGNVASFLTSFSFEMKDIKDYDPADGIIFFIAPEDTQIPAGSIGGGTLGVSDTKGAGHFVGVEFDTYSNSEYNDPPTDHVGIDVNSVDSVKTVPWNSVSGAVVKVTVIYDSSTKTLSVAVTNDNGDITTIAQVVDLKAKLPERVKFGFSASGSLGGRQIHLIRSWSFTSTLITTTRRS

In assay [1] the target is BSA-TF conjugate (bovine serum albumin carrying TF antigen through the thio-linker on amine groups) (bovine) (UniProt P02769). Kind of assay: Western blot and ELISA with PNA-hrp.
Assay [2] shares this target. As to the kind of experiment: Western blot and ELISA with lectin PNA. (In general: In western blotting, separated proteins are transferred to a membrane and probed.)

As for “Peanut Agglutinin (PNA), lectin from Arachis hypogaea (from UniProt P02872 24-259)”, the binding result in assay [1] and in assay [2] was “binds” each time.

These data come from US20210085770A1.
